The test system of this data set is Zone of skin. To be noted: human.

With `Oc1cccc(O)c1` [RESORCINOL], the “log Kp” value is given as -7.18.

Values taken from ChEMBL document CHEMBL1140614, “In silico and in vitro filters for the fast estimation of skin permeation and distribution of new chemical entities” (J Med Chem, 2007).
